The data set concerns the target T1, BarR (Sulfolobus acidocaldarius) (UniProt Q4J717).
T1 sequence (looked up, limits assumed): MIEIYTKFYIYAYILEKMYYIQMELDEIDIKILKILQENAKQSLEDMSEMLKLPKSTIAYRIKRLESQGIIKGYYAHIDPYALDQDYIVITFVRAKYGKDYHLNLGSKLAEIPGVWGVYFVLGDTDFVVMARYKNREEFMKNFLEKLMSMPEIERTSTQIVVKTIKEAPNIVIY
The experiment in a line: EMSA. As to conditions: EMSA with 32P-labelled PCR fragments, excess non-specific competitor DNA, BarR 0.25/1.25/2.5 uM, with or without 1 mM beta-alanine, recombinant protein, protein details: His-tag, label: 5'-32P on one strand, probe letters rebuilt from the primers and the genome. For orientation: In EMSA bound probe runs differently from free probe, usually more slowly.

Setting [1] is: no beta-alanine, 0.25-2.5 uM BarR.

Construct, isoform or probe ends are uncertain for at least one entry. Weaker means in comparison with the reference protein, sequence or condition of that experiment. Where a protein sequence is shown, tags need not be part of it. At least one verdict rests on a figure or table, not on a statement of the authors.

On to “CAACACTGATATACCAAGGATAAGATAATAAACAATATCCCATTTTTATAAGTTTTATTCTTTTTTATACTACTCCCCTAAATATTTAATTATACTATGTATAAGGAGTTTTAATTTTAGTCCATAAACATTCATTTAATCTTAATCCAAAATATACTAAGACTGTATTGGAAAATTTTCAATTTTACTTAAGTTATATTAAACTGTATACAAGTTTATTATACTAAAATAAAGGTGAATATGATAGTTAAAGTTTTTAAAATTCTTACAAAACTATTTTTAGTCGTAATAAATAAAAAATATCATTCCTAAGGGGTTGAGATTTAAATAGC (double strand) [Saci2319 target]”, for which the binding result is given as “binds more weakly” (1 mM beta-alanine) and “binds” under setting [1].
In the same order, the values of “CACCTAGCTGAAAAGTCCATCATCCTCTATTTATTTCCCCTTCCTTTTATCTTCCTTTACTCTATCTATGAGGTCAGTAATATCTGGTCTAATCTTATCTAACTGTTCCAACAACTCTAGGTATCTTTTGGATTTTTCTAACACATTTCTCCCCTTCGGAGCTAAGATGTATTCTCTGGTACTCGGTTCAAAATAGATAAGACCACTCTCCTCTAGTACCTTCATATATTTGTAAAATGGGCGAGAACTCAAATTAGTAACATATAACAACTTTGTCTTTTTGACACCAGATCTACACCCTTCTAATATGCTGATAACTATTTGTATTGAACTCCTTTTCTTTCTCCGCATACTGACATCTCTTTATCCCTATATTCTCGTCGTCTAACATAATAAAGTTTTGTATAACATTTAATTTAATGGCACTTG (double strand) [Saci1796 target]” are “binds” and “binds”.
On to “CCATAAGAACTTTATCACCTAGCACTGTCTCATATACTCTCATATTTCCAATTTGCCTAATACTAGGTCTTGAAAAGAAACTGGATATAGTTTTAGCTTTATTGGGAGATTCTACAACGAGGAGAACAGTCTTTACTTTTTGCAGTGCAGGCGCAACATTACCCTCATTTTTTAGTTTCGATATCTCATTCCTCTCTTCATTAATTTTTGAAATTAGATTCTTTATTTCTACGTCTCCTGCTGTCCACTTTTCAACATCTAATTCTCGCCATTGTATATCATCTAATATGTATTGCAACTTTTTATTTAGAAGTCTAAACAAATTAAAATCATCGACTAATAGAATAGATAGACCAGTGGTAACGTCTCCTGCATATATCCTGGACGTTCTTCCGCTAGCCTGAACATAGGTAAGATAGTCTGGAATCAGTATATCATTATCAGGAGATAATACGAAATCTCCTATCTCGCTTATTCTCTTCAGTACATTTTGATTACTAAG (double strand) [Saci0839 target]”, for which the binding result (1 mM beta-alanine) is “binds more weakly” and the binding result under setting [1] is recorded as “binds”.
Consider “GAGACCCAAACGCTGTTCATCATTATATCTGGTATTGGTATTATGTAGACTTTTGACAGATCTAAATTTTCTTTGTCCAGCGTTCTTCTTATCATTTCTATACGTTCTCCTGCAGTAAATGGATTGGATAGTGTATGACTCTCCTGAGCACTTCCTATAACTATGATTAATTCATCAACATGTTTCATTGACCATTTTACAACCTCTAAGTGACCTATGTGGAATGGTTGGAATCTTCCTGGATATAAGCCTCTATGCAAACATCTTCACCTTCTTTTACTCCCAAAATATTTGAAGCACTGCTCATATTAATTCCAATCTCTATAAATCCGTAACCATTGCTGTATAAAACTAATTCATTTTCCTTTCC (double strand) [Saci0720 target]”, for which the binding result under setting [1] is on record as “binds more weakly”.
In the case of “GAGGGCTTAAGAGAGCTAATGTAAAGCAGGGGGATATAGTTTTAGTGACTGGTGCAGGAGGTGGTGTTGGTATTCATGCCCTTCAGGTTGCTAAAGCTTTAGGAGCAAAAGTAGTAGGAGTAACAAGTGAAGAGAGTAAGGCTAAGATCGTTGGAAAATTTTCAGATTACGTGGTAGTTGGGAACAAGTTTGCTGAAGAGGTTAGAAAGGGATTTGGAGAACCTTCAATAGTAGTGGACAATGTAGGAGGTCCTACTCTTGATGAGAGTATGAGGTCACTGAAAATAGGTGGTAAGATAGTACAAGTAGGGAATATTGATCCCTCTGTCAATTTCAGTCTAAGGCTAGGTTACTTAGTCCTAAAGAATGTTGAGTTAATTGGACATGCCGGGGC (double strand) [Saci1115 target]”, the binding result was “binds” (1 mM beta-alanine) and “binds” under setting [1].
Take “GAGGTTCTTGATAGGTAATAGAAAGTTTGAATTTAAAGTTGAAAATAGAAGGGTTAAGATACTAGAATTACTACTAAAAAGATCTATAAACACTATAATAGAAAGGTTCATTATACAGAATAAAAATGAGATAGACGTAGAGTTAAATAAAAATCACAGAATTAAGCTTCTTATTGAGAAATATACAAAAATCATAGGCAGTATATTAGAAAATCAACAGAAGGCTTAATTTTACTGAGAATAAGTCCACTTCTTACTCTTTTTCAGCTAAGCCTAACAAAAAATCCTCTAAACCGTTTTCCAGTTTATATGTACCCAACTCTGTTTTCCACACTTTGCTCACTTTTGCATACCTAATAAATGAGGATCCCTGAATTAGCCAAGGCTGAGTAGCAAAGAGAGTAATGAACTTCTTAAACTCGTCTATTAAAAACACTTTACCAGGAGATACGATAAAGAGACAATCTACGTTTAAAGAACTATAGTTAGGAGCTAAGGCGTCATTATAAGACTCAATTAAAACATTAG (double strand) [Saci0061 target]”: the binding result by setting is: (1 mM beta-alanine) “binds more weakly”; under setting [1], “binds”.
Turning to “GCGATAGTATTTTCACAGGGTAAGAGCTTTATCCAGTAAACGTAAAATTTTTAAATAAATAAGTAAATTTCTCTCCACTCATCACTTAATCTTATTTTATCGTATTTAAGAAAAATTTTAAATAGTAGTAAATTAAACAATGTTTAAGGTCTCGTTGGATGGTATATAGAGTTAGCATTCTAGGTGTTAAGGGAGGAGTTGGAAAGTCTACAATAGCTTTGTCCCTTGGAAAGGCTCTAGCCTTGAAGGGAAAGAAAGTTCTTTTGATAGAAAGAGATATGGTAGGTTATGCATCATTCGCATTCGGAATTAAAAGAAAGGGTATATTGGCTAAATTAGCCGATGGAGAAGAACATTTTGAAGAAAG (double strand) [Saci1050 target]”, the binding result under setting [1] is on record as “binds more weakly”.
With “GGTCAAGTACAAATAGACCACCTGTAGGATACTTCTCCTCTAAATTCATTGTCCCTATCCAATATCTTCCCATCTGATCACACTTTCCGTCGTTAAACCTGTTCCTAGAATCCCAGTCTTTAACCTCATATAATAAGGAGATTTGATCCTTATCTTTTACTAAGTAAAATCCGTTTCCTGCAGTGACTATTATGCCACCTCTTTTAGTAGGTTGTAATGAACTAACATAAGTTGGAAATTTTACAGCCCAATGTGTGCCATCTTCTTTCAGATTGTGCAATTCTCCCTTGGGTATATCAACGAAGTACAATGAGTTATATGCCCATATAGGACCTTCATACAATTTCCCCTTCTGATTAAATATCCTGATCATTAGTTTATCACCTCATTCAT (double strand) [Saci1674 target]”, the binding result runs as follows: (1 mM beta-alanine) “binds”; under setting [1], “binds”.
